According to article PMC5593965:

B1: 30S ribosomal protein S2 (protein, UniProt Q4AAW8 1-318)
chain: MEKLVTQQVQNVDPKQSEILNISEIPAENPTETPIISKQKLLEAGVYFGHKASQWHPKMAQFLLKKKRNETHIIDVLKTQKMLEIAYKLVEKFAQKGAKFIFVGTKKQAKKVIEEQAVRTNSIYVSGRWLGGTLTNNRTILSRLKTMENLEKQAAENFQGYTKKEKLAKQKQLAKLQKNLNGIKGLKDVPLFSLIMLVADPLKDAIAVKEARKKGIKIIGITDSNVDPSLVDFGIPANDDSTKSITLIFTVLADAIASAKGGKKLFAYQSDENIILPEDPEKELKQTRYRNNSFEKFARQKNTLKESQVLKPNTEIQA
B2: Enolase (protein, UniProt Q4AA88 1-451)
chain: MSKITKVFAREILDSRGNPTIQVDVYTLAGGFGSAIVPSGASTGSREALELRDTNTKYADNWYGQKGVMTAVDNVNNIIAPEIIGLCCKNQRLIDQKMIELDGTPNKEKLGANAILGVSLAVAKAAANELRMPLFRYLGGTNPTLMPVPMLNVINGGEHASNTLDFQEFMIMPLGFRTFKEALQAANKVFHNLAKLLKKSGFETQVGDEGGFAPNFNSHEQALDFLVDAIKESGFNPGFKGENAVAIAIDAAASEFYNGQKYVFKKLKSASLNKNQADLDEKFEFNSEELLNYYGQLLAKYPIISIEDGFAESDWQGFIAFNQKYGNNHQIVGDDLTVTNVEILKKAINLKAINSILIKLNQIGTLSETLDAIHLAQKSGMTAVISHRSGESEDTTIADLAVAVSSGQIKTGSLSRTDRIAKYNRLLVIEEYLNSYAKADYIGREVFYNLK
B3: L-lactate dehydrogenase (protein, UniProt P0C0J3 1-315)
chain: MKPIKIALIGAGNVGNSFLYAAMNQGLASEYGIIDINPDFADGNAFDFEDASASLPFPISVSRYEYKDLKDADFIVITAGRPQKPGETRLELVADNIRIIREIALKVKESGFSGISIIVANPVDIITRAYRDASGFSDQKVIGSGTVLDTARLQFAIAKRAKVSPNSVQAYVMGEHGDSSFVAYSNIKIAGECFCAYSKLTGIDSSNYEKELEYPVSRRAYEIINRKRATFYGIGAAIAKIVSNIIKDTKNIMIAGANLRGEYGFHGVNIGVPVVLGANGIEKIIEISLNDKEKEKFAKSVAIIDKIYQDAIKNI
B4: ATP-dependent 6-phosphofructokinase (protein, UniProt Q4AAM2 1-322)
chain: MSKKIGILTSGGDAPGMNSAISFLAKSALSLGFEPYLIFDGYSGIIARKILPAKNFPYNGISSFGGTAIGSSRFPEFKKEEVQNKAVEILSEIGISSLVVVGGDGTYNGGYKLHLKGIKVIALPGTIDNDIQFTDYTIGFDTALNTIVETIDKLRDTANSHRRCFVVEVMGRHCQDLALYSAMATGSEILITNTNILTPEEVSQKVLEQFAKGKPSVIVTITENILPNLKEFAAKIEELTKISTRSLEVGHTQRGGRPSAFDRILAAKMAMKAMELINQDKSGLAISYLDGKIQTFDIAKVVSKPVRKTNDLVLEINKINQN
B5: Trigger factor (protein, UniProt Q4AAI5 1-465)
chain: MIKREFLPESAELKIKLTADSKKWAEFYQKAEQKQAAKVSLRGFRKGKVPLEKARAYLNPQAVFELALRMFLPELEKQAATNIIDSDNVIESPIFNIVNMDKNNLEIEFLYPVYPEIKLPDYKNLKTKFAIKKITKEDIELQKQKLLEAKGRFIEVNRPVKIGDVINFNFKGFIDDEPFDGGEGENFDLRIGSNSFIAGFEEQLVGLEIKKEADIYVTFPENYQVHTYANKKARFRVRINKIKENQPAKLTNEFVASLKIQNVETISQLEVYLENLTERENIERAKIDFQRNALTEIGEQVEVPLAKKLINLEIERLNEVFHSTLKQQEIPLKEYLKITKFTEKDIYDQFEVEAKKLLKNSFIFAEIAKLEGLVPTQQEYESHVEKLAKFTGKSVQEISETVSYNEIQINITNQKVIDKLIEFNHEAKDEEIVNKNQNDNEIEQDKEQKDNNEEKIKQENNLENK
B6: 46 kDa surface antigen (protein, UniProt P0C0J8 28-416)
chain: CGQTESGSTSDSKPQAETLKHKVSNDSIRIALTDPDNPRWISAQKDIISYVDETEAATSTITKNQDAQNNWLTQQANLSPAPKGFIIAPENGSGVGTAVNTIADKGIPIVAYDRLITGSDKYDWYVSFDNEKVGELQGLSLAAGLLGKEDGAFDSIDQMNEYLKSHMPQETISFYTIAGSQDDNNSQYFYNGAMKVLKELMKNSQNKIIDLSPEGENAVYVPGWNYGTAGQRIQSFLTINKDPAGGNKIKAVGSKPASIFKGFLAPNDGMAEQAITKLKLEGFDTQKIFVTGQDYNDKAKTFIKDGDQNMTIYKPDKVLGKVAVEVLRVLIAKKNKASRSEVENELKAKLPNISFKYDNQTYKVQGKNINTILVSPVIVTKANVDNPDA
B7: 30S ribosomal protein S4 (protein, UniProt Q4A9B0 1-205)
chain: MSRYTGSIFRKSRRLGFSILETGKEFAKGKQRRYAPGLHGLRRSKPSDYGVHLREKQKVRFMYGLSEKQFRNTYRKATKKTGIAGTLFLQALESRLDNSVYRAGFAETRRQARQLVNHGHFLVNNKKVDIPSFQLKQGDIFELTTRKDGKIRKNQQILTSLETRTPAAWLEVDKDNFKVVFNRMPERSELNQEIKESLIVEFYSK
B8: 30S ribosomal protein S6 (protein, UniProt Q4AA43 1-241)
chain: MPKYEIMTILDPKAEMAIIDNLLKTVFGDNSTEKLRKLETTNLAYSIRKSKIAQYFLVDLNAPTNLIEEFVRRANITREIWRYLIVNLDSEKGLNKKPKIRERNRKYTLRRDRFDKPNFRGNPKSRFDQQDQQATKNQQNFQQNQQNQASQYRENSRQNQDDFQQVSSNQQNFGQNQQNQSGYHRENNRHNQENMHQNNKNHQNQTSQTQRNRRQYQPIKNPKFNQKEKENYNNKKPQSSN
B9: 50S ribosomal protein L3 (protein, UniProt Q4AAE0 1-230)
chain: MKGILGKKVGMSQLFTTEGIAIPVSIIEVPENIVTKIITKEKNSYDAIQLAAFDKKQSRFLKPEIGHFAKANTKPKRFIKEFRDFQGYKLGQTVDVSIFSPGEFVDVTGTSKGKGFAGTIKRYNQAIGPRSHGGGGGSKPIRQTGSLGDISGNKVVKGMTMPGRLGHEKVTKQSLEIIKVDKENNLLVLKGSVPGPKKSFLVIKSAIKKPNPKNPVSLFVPNSDKEVKNE
B10: 50S ribosomal protein L2 (protein, UniProt Q4AAE3 1-282)
chain: MALKYYKPTTNGRRHMSSLDFGANLTTNKPEKSLLTILKKHSGRNSQGKITVRHQGGRHKRKYRLIDFKRNKDDITGIVKTIEYDPNRSANIALISYIDGEKRYILAPKNLKVGQKISSGPKSDILVGNALPLAKIPEGTFVHNIELKPGAGAKLIRSAGTWAQIQGRDENGKYVILKLKSGEYRRILATCRATIGVVGNEENSLVNIGKAGRNRHKGIRPTVRGSVMNPNDHPHGGGEGKQPIGRKSPLTPWGKKALGVKTRNPKKPSTKLIIRSRKETKK
B11: 50S ribosomal protein L16 (protein, UniProt Q4AAE7 1-136)
chain: MLQPKKTKHRKTFRLYHDKRDAHSGNFVAFGDYGLQATGSAWVSAAQIEAARIAITRRMGREGQVIIRVFPHLALTSKPIGVRMGSGKGSVDRWVAVVKRNTILFEVRGVKDEIARDALRLGGHKLPLKWKIVATV
B12: 50S ribosomal protein L24 (protein, UniProt Q4AAF1 1-107)
chain: MGKIRKNDTVVVLSGDDKGKQGAVLELIPAKKAAIVKGVNIKTKHRKPSNKNTSGEIITFEAPILLSKLALVAKKATKDKPAIPTRVGFKIENKKKIRIAKKTGKAI
B13: 30S ribosomal protein S8 (protein, UniProt Q4AAF4 1-131)
chain: MAFITDPIADMLTRIRNATIRKHKNVSFQHSKTKVKILEIIQKAGYIKDFQVEGDLKKNITVELKYKGNLSSISGLKRISKPSLRVYTSASKIPFVQSGFGIAILSTSKGLLTDSQARKENVGGEIIAYIW
B14: 50S ribosomal protein L21 (protein, UniProt Q4AAK2 1-99)
chain: MFAIIKTGGRQLKVEKDQTIFVEKIDKNEGETITFTDILFINGKIGTPYVENASVTGIIEKQGKAKKIVVYRHNPKSTHKRKLGHRQLFTKVKITELKG
B15: DNA-directed RNA polymerase subunit beta (MHJ_0617) (protein, UniProt Q4A970 1-1412)
chain: MNTKVSRQYAKISENSIQKISLALATPEDVLEWSRGEVHRPETINYKTFKPERGGLFDELIFGPLVDYKCSVCGRKYRKSNENQLCIATKECKIRGSRILSKMARRYSMGHIALNAPILHFWFFKIDHSIIAKLLGLKVFEGNSKVPTTITKAAIENLIYYKSHIVLETGGLKSLEQNKIIDISEAGLIYKNALIEIIEFYPPGSEEHNALAESISELADVTSSKIGREYGVDYYELNEIIEEFSSARIATGALAIEYLLDKIDLRAEKAAVEAELAGVQKQIYKNKKIILKNQKRDKLYKRLQVINAFINSGQDPKMMIIRNLPVIPADLRPLVQLDGSRHSTSDCNELYRRIIIRNNRLKRWKAAHAPVIIIQNEMRMLQEAVDALIDNQKKSTNQVTTKEGRPLKSISDALTGKKGRFRQNLLGKRVDYSGRSVIVVGPKLKMHQAGLPRKMAAVLFEPWIIRNLIQEKKVGSIKMARKMIEEENPIIWPHVAKVIQNKPIILNRAPTLHRLSIQAFEPVLVRAKAIQLHPLVTAGFNADFDGDQMAVHIPISPEAIRETQELMFADKNILGPKDGEPIVNPSQDMVLGLYYLSQEKAGAKGEGSFFSTYEAMLKAYEFRSVELHARVVLPFEQVKPFIAKTMRGHLISTVGKFILNNIFPANFPFIFDDNVDELELNYPSQIKKYVLPYGTNFREYIQNLKVNEPLNKKAIAKIVRQIFDTYDGLLAKEDIATVIDQLDFGNYQNCVLRYEKLRDYKKQKLPVPHLSKLSEFTIFEYSQLYKQLQQNGPVESYRVLEDHEKAELLEKIWFKYNNMVCSILDKIKDLGFHYSTLSGTSIAISDIKMAPKKHEFIKEGENYINKLNTFYAKGLITDDERYVLAIAKWTQIKNDIQEDLNQSIKDDNQNSLVMMMKSGARGNISNFVQLAGMRGLMANNVKALKVDAENERVVRSIVEVPVKSSFLEGLTSFEFYSSTHGARKGLTDTALNTAKSGYLTRRLVDVAQNIVVVAEDCFSDFGFVVKDIIDTKTNTIIVPLLERIEGRFLNKDVYDSRGIKLASAGTMVDLQTAKKIVAAGIKKVEIRSILSCHIKNSVCKKCYGKDLATNRLVSIGEAVGIIAAQSIGEPGTQLTMRTFHTGGVANVEDITGGFTRLIELIDSHEHPWGKPAKISPYYGIITKISDLAEKNAANKGFLITIEYKTSKNEKAEHIIRIEQSQKLRVKVGDKVIPGQKLVEGPIILKELLAVSDARTLQNYLLKEIQRIYRMQGISISDKYIEIIIRQMLSKVQIIENGDSNFFIGSIVDISDYQEVNGQLISQNKNPAFGNVIVKGAKQIPLLSNSFLAAASYQETSKILVHSVISSQIDKLEGLKENIIVGHKIPAGTNSNYEPKSKFDIRNPLSFFMKNNR

Target: plasminogen
Test: affinity purification with mass spectrometry; plasminogen as bait on an avidin agarose column; M. hyopneumoniae protein lysate loaded in PBS (pH 7.8), washed with 4 column volumes of PBS, eluted with 30% acetonitrile, 0.4% trifluoroacetic acid; elutions separated by 1D-SDS-PAGE and analysed by LC-MS/MS; only the target purified

Q: For B1, which binding is on record?
A: binds

Q: Which binding does the source give for B2 here?
A: binds

Q: Which binding does the source give for B3 here?
A: binds

Q: How did the binding turn out when B4 was run?
A: binds

Q: For B5, which binding is on record?
A: binds

Q: With B6 as the binder, how does the binding read?
A: binds

Q: B7 was tested. Which binding did it give?
A: binds

Q: For B8, which binding is on record?
A: binds

Q: Which binding does the source give for B9 here?
A: binds

Q: Which binding does the source give for B10 here?
A: binds

Q: Which binding does the source give for B11 here?
A: binds

Q: How did the binding turn out when B12 was run?
A: binds

Q: Which binding does the source give for B13 here?
A: binds

Q: With B14 as the binder, how does the binding read?
A: binds

Target: fibronectin
Test: affinity purification with mass spectrometry; fibronectin as bait on an avidin agarose column; M. hyopneumoniae protein lysate loaded in PBS (pH 7.8), washed with 4 column volumes of PBS, eluted with 7 M urea, 2 M thiourea, 40 mM Tris and 1% (w/v) C7BzO; elutions separated by 1D-SDS-PAGE and analysed by LC-MS/MS; only the target purified

Q: With B1 as the binder, how does the binding read?
A: binds

Q: B2 was tested. Which binding did it give?
A: binds

Q: For B3, which binding is on record?
A: binds

Q: B6 was tested. Which binding did it give?
A: binds

Q: How did the binding turn out when B7 was run?
A: binds

Q: B8 was tested. Which binding did it give?
A: binds

Q: With B11 as the binder, how does the binding read?
A: binds

Q: How did the binding turn out when B15 was run?
A: no binding

Results are given in words; binding and its absence hold for the method and conditions named. In cells and extracts the contact can be indirect. These calls come from enrichment with a bait or labelling near it, and not all partners need be listed. For some of these results: A no says only that the protein was not detected with the bait.
